Test results as given in PubChem BioAssay AID1347431 (National Center for Advancing Translational Sciences (NCATS), 2020).
The whole screen tested about 1,200 compounds, of which fewer than 10 were called active. This list was built around the results that the source calls inconclusive (neither active nor inactive); the mix of calls is not that of the screen. Calls follow the shape of the dose curve; as a rule, active = well fitted curve in the direction sought with a large enough effect; inconclusive = small, poorly fitted or top-dose-only effect, or another doubt; inactive = no such curve, though single readings can be large or run the other way. Where the call is inconclusive, the potency comes from a doubtful curve fit.

Test: Confirmatory qHTS assay for inhibitors of Activation Induced Cytidine Deaminase (AID): UDG signals; as to activity change, negative = inhibition: 0% is about no effect
Conditions: UDG coupled enzyme activity counter-screen; series mostly up to 115 µM; activity change, negative = inhibition: at the top concentration
Source text: Assay Provider (PI) Patricia Gearhart Ph.D.
National Institute on Aging
National Institute of Health (NIH), Bethesda, MD
Assay Provider (PI) Rahul Kohli Ph.D.
Perelman School of Medicine
University of Pennsylvania, Philadelphia, PA
Activation-Induced Deaminase (AID) is a cytosine deaminase which converts cytosine into uracil within stretches of ssDNA. The presence of uracil in DNA initiates a cascade of mutagenic DNA repair to introduce point mutations and DNA double strand breaks. Specific targeting of AID to the immunoglobulin heavy chain loci (Igh) promotes mutagenesis in the antibody variable region for somatic hypermutation (SHM) or switch regions leading to class switch recombination (CSR). However, AID also plays a role in accumulating unnecessary mutations across the genome. Mis-targeting of AID results in the initiation of tumor development and leads to greater drug resistance among cancer cells when continually expressed. To identify an AID inhibitor, a small molecule library will be screened in collaboration with NCATS core facility at NIH. To confirm biological function, inhibitors will be examined in an in vitro murine B-cell activation assay and subsequent secondary validation screens. Top molecules will be further screened to identify inhibitory efficacy against a wild type primary splenocytes assay. Using these approaches, we hope to identify a small molecule with great efficacy and low toxicity for use as a molecular probe to further characterize AID's intricacies, or even as a therapeutic.
A FRET based analysis of cytosine deamination, was developed to identify potential inhibitors of AID catalytic activity. This screen has two signal output, Read 1 evaluates the AID inhibition response. The second readout (Read 2) evaluates UDG response and is uses as a counterscreen to exclude false positive inhibitors. Inhibition in AID and inactivity in the UDG signal is the desired outcome for this assay.
SEQUENCE No. (e.g., 1, 2, 3, etc.); […] (e.g., Cells, Incubation, Reagent, etc.); VALUE; DESCRIPTION
1a; Reagent; 3 uL; [4/3x] 1 uM AID/2.67 U/mL UDG
1b; Reagent; 3 uL; 2 U/mL UDG
1c; Reagent; 3 uL; 1 uM AID
2a; Compound; 46 nL; Follow-up plates (0.64 uM - 10 mM)
2b; Control; 46 nL; ATA ([…] - 10 mM)
3; Time; 10 min; incubation at room temperature
5; Time; 4 hr; incubation at room temperature
6; Reagent; 4 uL; [2x] 250 mM NaOH
7; Time; 15 sec; centrifuge at 1000 rpm
8; Time; 30 min; incubation at room temperature
9a; Detection; fluorescence (Read 1: AID); EnVision (PerkinElmer) plate reader, 540 excitation and 590 emission filters
9b; Detection; fluorescence (Read 2: UDG); EnVision (PerkinElmer) plate reader, 560 excitation and 665 emission filters
NOTES (numbers refer to sequence above)
1a; Reagents were dispensed in a medium-binding black solid-bottom Greiner plates (789176F) using a BioRptr liquid dispenser. Dispense 3 uL of [4/3x] 1 uM AID (provided by Kohli lab) and [4/3x] 2 U/mL UDG (NEB M0280L) into columns 1, 2, 5 to 48.
1b; Dispense 3 uL of [4/3x] 2 U/mL UDG into column 3.
1c; Dispense 3 uL of [4/3x] 1 uM AID into column 4.
2a; Compound (7-points [uM]: 0.64; 3.2; 16; 80; 400; 2,000; 10,000; […]) double pin-transferred (Dip Factor = 2) using the Kalypsys (Wako USA) pintool equipped with a 1536 pinhead for a final concentration range of 7.32 nM - 114 uM.
2b; 10 mM Aurintricarboxylic Acid (Sigma A1895) (ATA, 8-point, n = 2, 1:2.5 dilution in column 2) double pin-transferred (Dip Factor = 2) using the Kalypsys (Wako USA) pintool equipped with a 1536 pinhead for a [final] range of 186 nM - 114 uM.
3; Room temperature incubation.
4; Dispense 1 uL of substrate mixture from the Kohli lab [4x] […] DJC20 and [4x] 250 nM DJC23 into columns 1 to 48 .
5; Room temperature incubation.
6; Dispense 4 uL of substrate mixture [2x] 250 mM NaOH into columns 1 to 48.
7; Centrifugation step to remove bubbles.
8; Room temperature incubation
9a; Fluorescence signal (column label AID) was read using the EnVision plate reader. […]
For `CCOc1cc(CNc2ccc(O)cc2)ccc1OCc1ccc(Cl)cc1`, the Potency was inconclusive: 5.62 µM [inhibitor, partial curve, poor fit]. For `CCOc1ccc(-n2c(Cc3ccccc3)nnc2SCc2nc(-c3ccccc3OC)no2)cc1`, the Potency was inconclusive: 35.5 µM [inhibitor, single point]. In the case of `c1cnc(N2CCN(c3ncc4c(n3)CCNC4)CC2)nc1`, the Potency is reported as inconclusive: 56.2 µM [inhibitor, single point]. With `COc1ccc(-c2noc(CSc3nnc(-c4ccccc4)n3-c3ccc(F)cc3)n2)c(OC)c1` the Potency was inconclusive: 15.8 µM [inhibitor, partial curve, poor fit]. In the case of `CCOc1ccc(-c2noc(CSc3nnc(Cc4ccccc4)n3-c3cccc(C)c3)n2)cc1`, the Potency is reported as inconclusive: 39.8 µM [inhibitor, partial curve]. In the case of `CCc1ccc(-n2c(SCc3nc(-c4cc(OC)ccc4OC)no3)nnc2-c2ccccc2)cc1`, the Potency is reported as inconclusive: 31.6 µM [inhibitor, single point]. In the case of `COC1=C(OC)C(=O)c2ccccc2C1=O`, the Potency is reported as inconclusive: 39.8 µM [inhibitor, partial curve, poor fit]. With `CCOc1ccc(-c2noc(CSc3nnc(Cc4ccccc4)n3-c3ccc(F)cc3)n2)cc1` the Potency was inconclusive: 31.6 µM [inhibitor, partial curve]. In the case of `Cc1ccccc1-c1noc(CSc2nnc(Cc3ccccc3)n2-c2ccc(F)cc2)n1`, the Potency is reported as inconclusive: 31.6 µM [inhibitor, partial curve, poor fit]. For `CCn1cc(C(=O)NCCc2ccc(OC)c(OC)c2)c(=O)c2cc(S(=O)(=O)N3CCC(C)CC3)ccc21`, the “activity change, negative = inhibition” value was inactive: -8.81%.
